Assay results taken from the supplement of paper PMC4807443.
Counter-ions that a name gives are not always drawn. The list shows a part of the results. The numbers are fractions of the control, whatever unit the source prints. Most entries show no effect beyond the scatter of the controls.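 A lentiviral reporter stably expressed in MIN6 mouse insulinoma beta cells uses Pdx1 and Ins1 promoters to drive separate nucleus-targeted fluorescent proteins; automated imaging with Hoechst nuclear stain counted cells. Possible hits were drugs shifting Ins1 promoter signal more than two median absolute deviations from DMSO controls, with Pdx1 activity roughly normal.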

system: MIN6; test: % Pdx1+ Ins1-low (RFP-only, immature) cells relative to DMSO control (fold of DMSO control); higher = more immature Pdx1+/Ins1-low cells; conditions: 8.5 µM; 48 h; glucose 5 mM

SMILES | % Pdx1+ Ins1-low
COc1ccc2c(c1)N(C[C@H](C)CN(C)C)c1ccccc1S2 [Methotrimeprazine maleat salt] | 0.996
CN1CCCC(CC2c3ccccc3Sc3ccccc32)C1 (stereo not drawn) [Metixene hydrochloride] | 1.52
COc1ccccc1N1CCN(CC(O)COc2cccc3ccccc23)CC1 (stereo not drawn) [Naftopidil dihydrochloride] | 0.818
CN1CCC(=C2c3ccccc3CC(=O)c3sccc32)CC1 [Ketotifen fumarate] | 0.983
CCN1C(=O)NC(c2ccccc2)C1=O (stereo not drawn) [Ethotoin] | 0.869
CC[C@@H](CC[C@@H](C)[C@H]1CC[C@H]2[C@@H]3CCC4C[C@@H](O)CC[C@]4(C)[C@H]3CC[C@]12C)C(C)C (stereo partly drawn) [Beta-sistosterol] | 0.995
COc1cc(OC)c(C(=O)CCCN2CCCC2)c(OC)c1 [Buflomedil hydrochloride] | 0.966
Nc1c(Br)cc(Br)cc1CN[C@H]1CC[C@H](O)CC1 [Ambroxol hydrochloride] | 1.05
Cn1ccnc1S [Methimazole] | 1
CC(C)(Sc1cc(C(C)(C)C)c(O)c(C(C)(C)C)c1)Sc1cc(C(C)(C)C)c(O)c(C(C)(C)C)c1 [Probucol] | 0.974
CCN[C@H]1C[C@H](C)S(=O)(=O)c2sc(S(N)(=O)=O)cc21 [Dorzolamide hydrochloride] | 0.853
CC(C)/N=c1\cc2n(-c3ccc(Cl)cc3)c3ccccc3nc-2cc1Nc1ccc(Cl)cc1 [Clofazimine] | 1.08
CC(=O)N(O)CCCCCNC(=O)CCC(=O)N(O)CCCCCNC(=O)CCC(=O)N(O)CCCCCN [Deferoxamine mesylate] | 0.841
CC(C)(C(=O)c1cccnc1)c1cccnc1 [Metyrapone] | 0.869
O=c1cc(-c2ccc(O)c(O)c2)oc2cc(O)cc(O)c12 [Luteolin] | 0.809
CN1CCc2cccc3c2[C@H]1Cc1ccc(O)c(O)c1-3 [R(-) Apomorphine hydrochloride hemihydrate] | 1.2
CCC(Cc1c(I)cc(I)c(N)c1I)C(=O)O (stereo not drawn) [Iopanoic acid] | 0.846
CCC(NC(C)C)C(O)c1ccc(O)c(O)c1 (stereo not drawn) [Isoetharine mesylate salt] | 0.978
CC(C)NC[C@H](O)COc1ccc(CC(N)=O)cc1 [(S)-(-)-Atenolol] | 1.02
C[C@@H]1[C@H](O)[C@@H](C)/C=C/C=C/C=C/C=C/C=C/C=C/C=C/[C@H](O[C@@H]2O[C@H](C)[C@@H](O)[C@H](N)[C@@H]2O)C[C@@H]2O[C@](O)(C[C@@H](O)C[C@@H](O)[C@H](O)CC[C@@H](O)C[C@@H](O)CC(=O)O[C@H]1C)C[C@H](O)[C@H]2C(=O)O [Amphotericin B] | 1.26
CO[C@@]1(NC(=O)CSCC#N)C(=O)N2C(C(=O)O)=C(CSc3nnnn3C)CS[C@@H]21 [Cefmetazole sodium salt] | 0.801
C[C@@H]1NC(=O)NC1=O [Methylhydantoin-5-(L)] | 0.538
CN1CCN(C2=Nc3cc(Cl)ccc3Nc3ccccc32)CC1 [Clozapine] | 0.855
NC12CC3CC(CC(C3)C1)C2 [Adamantamine fumarate] | 1.3
Clc1ccc(COC(Cn2ccnc2)c2ccc(Cl)cc2Cl)c(Cl)c1 (stereo not drawn) [Miconazole] | 0.981

SMILES | % Pdx1+ Ins1-low
Cc1cc(=O)n(-c2ccccc2)n1C [Antipyrine] | 0.825
Cn1c([N+](=O)[O-])cnc1COC(N)=O [Ronidazole] | 0.653
CN(C)[C@@H]1C(O)=C(C(N)=O)C(=O)[C@@]2(O)C(O)=C3C(=O)c4c(O)ccc(Cl)c4[C@@H](O)[C@H]3C[C@@H]12 [Demeclocycline hydrochloride] | 0.93
CC(Oc1ccccc1)C(=O)N[C@@H]1C(=O)N2[C@@H]1SC(C)(C)[C@@H]2C(=O)O (stereo partly drawn) [Phenethicillin potassium salt] | 1.08
N[C@@H](C(=O)N[C@@H]1C(=O)N2C(C(=O)O)=C(Cl)CS[C@H]12)c1ccccc1 [Cefaclor] | 0.892
OC(CCN1CCCCC1)(c1ccccc1)C1CCCCC1 (stereo not drawn) [Trihexyphenidyl-D,L Hydrochloride] | 0.831
N=C(N)N/N=C/c1c(Cl)cccc1Cl [Guanabenz acetate] | 1.12
CN(C)CCOC(=O)COc1ccc(Cl)cc1 [Meclofenoxate hydrochloride] | 0.572
Nc1cc(-c2ccncc2)c[nH]c1=O [Amrinone] | 1.06
c1ccc2c(c1)CCCc1cc(NCCN3CCOCC3)nnc1-2 | 1.05
CCC(=O)OCC(=O)[C@@]1(OC(=O)CC)[C@H](C)C[C@H]2[C@H]3[C@H]([C@@H](O)C[C@@]21C)[C@@]1(C)C=CC(=O)C=C1C[C@H]3Cl [Alclometasone dipropionate] | 0.743
Cc1ccccc1N1C(=O)c2cc(S(N)(=O)=O)c(Cl)cc2NC1C (stereo not drawn) [Metolazone] | 1.02
C=CC1=C(C(=O)O)N2C(=O)[C@@H](NC(=O)/C(=N\OCC(=O)O)c3csc(N)n3)[C@H]2SC1 [Cefixime] | 0.725
OCCOCCN1CCN(C(c2ccccc2)c2ccc(Cl)cc2)CC1 (stereo not drawn) [Hydroxyzine dihydrochloride] | 0.792
CC(=O)Nc1ccc(O)cc1 [Acetaminophen] | 1.13
COc1ccc2[nH]c([S+]([O-])Cc3ncc(C)c(OC)c3C)nc2c1 (stereo not drawn) [Omeprazole] | 0.661
CCOC(=O)[C@H](CCc1ccccc1)N[C@@H](C)C(=O)N1CCC[C@H]1C(=O)O [Enalapril maleate] | 1.23
CO/N=C(\C(=O)N[C@@H]1C(=O)N2C(C(=O)O)=C(C[N+]3(C)CCCC3)CS[C@H]12)c1csc(N)n1 [Cefepime hydrochloride] | 0.714
CC[N+](CC)(CC)CCC(O)(c1ccccc1)C1CCCCC1 (stereo not drawn) [Tridihexethyl chloride] | 1.36
Cc1noc(NS(=O)(=O)c2ccc(N)cc2)c1C [Sulfisoxazole] | 0.492
CCc1cccc2c3c([nH]c12)C(CC)(CC(=O)O)OCC3 (stereo not drawn) [Etodolac] | 0.949
C[C@]12CC[C@@H]3c4ccc(O)cc4CC[C@H]3[C@@H]1C[C@@H](O)[C@@H]2O [Estriol] | 0.818
CN(C)CCCO[C@@H]1[C@H]2OC(C)(C)O[C@H]2O[C@@H]1[C@H](O)CO [Amiprilose hydrochloride] | 1.34
CC1=C(CC(=O)O)c2cc(F)ccc2/C1=C\c1ccc([S+](C)[O-])cc1 (stereo not drawn) [Sulindac] | 1.03
C=C1C[C@]23C[C@@]1(O)CC[C@H]2[C@@]12C=C[C@H](O)[C@@](C)(C(=O)O1)[C@H]2[C@@H]3C(=O)O [Gibberellic acid] | 0.613

SMILES | % Pdx1+ Ins1-low
CC1CS(=O)(=O)CCN1/N=C/c1ccc([N+](=O)[O-])o1 (stereo not drawn) [Nifurtimox] | 0.87
CN1[C@@H](CC(=O)c2ccccc2)CCC[C@H]1C[C@H](O)c1ccccc1 [Lobeline alpha (-) hydrochoride] | 0.999
c1ccc2[nH]c(-c3cscn3)nc2c1 [Tiabendazole] | 0.925
CC(=O)N(CC(C)C(=O)O)c1c(I)cc(I)c(N)c1I (stereo not drawn) [Iocetamic acid] | 1.36
CN(C)[C@@H]1C(O)=C(C(N)=O)C(=O)[C@@]2(O)C(O)=C3C(=O)c4c(O)ccc(Cl)c4[C@@](C)(O)[C@H]3C[C@@H]12 [Chlortetracycline hydrochloride] | 0.971
C[C@]12CC[C@@H]3c4ccc(O)cc4CC[C@H]3[C@@H]1CCC2=O [Estrone] | 1.02
CCOC(=O)C1=C[C@]2(CC)CCCN3CCc4c(n1c1ccccc41)[C@@H]32 [Vinpocetine] | 1.01
CNCCC(Oc1ccccc1OC)c1ccccc1 (stereo not drawn) [Nisoxetine hydrochloride] | 0.943
Cc1cccc(CN2CCN(C(c3ccccc3)c3ccc(Cl)cc3)CC2)c1 (stereo not drawn) [Meclozine dihydrochloride] | 0.918
COc1cnc(NS(=O)(=O)c2ccc(N)cc2)nc1 [Sulfameter] | 0.702
O=C(O)CCC(=O)Nc1ccc(S(=O)(=O)Nc2nccs2)cc1 [Succinylsulfathiazole] | 0.904
COC(=O)[C@@H]1[C@H]2C[C@H]3c4[nH]c5ccccc5c4CCN3C[C@@H]2CC[C@@H]1O [Yohimbine hydrochloride] | 0.722
CCCCC(CC)CNC(=N)NC(=N)NCCCCCCNC(=N)NC(=N)NCC(CC)CCCC (stereo not drawn) [Alexidine dihydrochloride] | 0.519
CC1(C)NC(=O)N(c2ccc([N+](=O)[O-])c(C(F)(F)F)c2)C1=O [Nilutamide] | 0.749
CC(C)NCC(O)COc1cccc2ccccc12 (stereo not drawn) [Propranolol hydrochloride] | 0.818
Nc1nc(=O)c2c([nH]1)NC[C@@H](CNc1ccc(C(=O)N[C@@H](CCC(=O)O)C(=O)O)cc1)N2C=O [Folinic acid calcium salt] | 1.04
COc1ccc2cc([C@@H](C)C(=O)O)ccc2c1 [(R) -Naproxen sodium salt] | 1.05
COc1ccc2cc1Oc1ccc(cc1)C[C@H]1c3cc(c(OC)cc3CCN1C)Oc1c(OC)c(OC)cc3c1[C@H](C2)N(C)CC3 [Tetrandrine] | 0.629
CCC1=C(C)CN(C(=O)NCCc2ccc(S(=O)(=O)NC(=O)N[C@H]3CC[C@H](C)CC3)cc2)C1=O [Glimepiride] | 1.06
CCCCOc1cc(C(=O)NCCN(CC)CC)c2ccccc2n1 [Dibucaine] | 0.869
CCS(=O)(=O)CCn1c([N+](=O)[O-])cnc1C [Tinidazole] | 0.826
Cc1nc2n(c(=O)c1CCN1CCC(c3noc4cc(F)ccc34)CC1)CCCC2 [Risperidone] | 0.514
CNCCC(Oc1ccc(C(F)(F)F)cc1)c1ccccc1 (stereo not drawn) [Fluoxetine hydrochloride] | 0.836
